Results are given in words; binding and its absence hold for the method and conditions named. For some assays here: A result given as binding can be weak or reduced; the word gives no strength. Tags and fused reporters may be left off the sequences shown.
Key:
desmin-coil 2 (human) = test: far-Western, overlay or dot blot; FluoBACE overlay of western blot: whole extracts from E. coli expressing the proteins on 15% SDS-PAGE, transferred, overlaid 1 h at 4°C with soluble HEK 293T extract with EGFP-DSP C-terminus (67 ± 17 nM total), fluorescence scan
desmin-coil 1 (human) = test: as above

binding (desmin-coil 1 (human)): binds
B1: EGFP-DSP C-terminus (C-terminus of desmoplakin tagged at the N-terminus with EGFP) (domain or fragment, UniProt P15924-1 2194-2871)
chain: PHTGLLLLSVQKRSMSFQGIRQPVTVTELVDSGILRPSTVNELESGQISYDEVGERIKDFLQGSSCIAGIYNETTKQKLGIYEAMKIGLVRPGTALELLEAQAATGFIVDPVSNLRLPVEEAYKRGLVGIEFKEKLLSAERAVTGYNDPETGNIISLFQAMNKELIEKGHGIRLLEAQIATGGIIDPKESHRLPVDIAYKRGYFNEELSEILSDPSDDTKGFFDPNTEENLTYLQLKERCIKDEETGLCLLPLKEKKKQVQTSQKNTLRKRRVVIVDPETNKEMSVQEAYKKGLIDYETFKELCEQECEWEEITITGSDGSTRVVLVDRKTGSQYDIQDAIDKGLVDRKFFDQYRSGSLSLTQFADMISLKNGVGTSSSMGSGVSDDVFSSSRHESVSKISTISSVRNLTIRSSSFSDTLEESSPIAAIFDTENLEKISITEGIERGIVDSITGQRLLEAQACTGGIIHPTTGQKLSLQDAVSQGVIDQDMATRLKPAQKAFIGFEGVKGKKKMSAAEAVKEKWLPYEAGQRFLEFQYLTGGLVDPEVHGRISTEEAIRKGFIDGRAAQRLQDTSSYAKILTCPKTKLKISYKDAINRSMVEDITGLRLLEAASVSSKGLPSPYNMSSAPGSRSGSRSGSRSGSRSGSRSGSRRGGFDATGNSSYSYSYSFSSSSIGH
binding (desmin-coil 2 (human)): no binding (tested: 67 ± 17 nM, total concentration)

Reference: paper PMC6171917
